Assay results: article PMC6591252
No constants are given. Whether binding was seen depends on the method and setting. Binding seen in cells or lysates may run through a third protein. Binding can be weak; no strength is given.

Sequences of proteins named here, by UniProt entry; tags and fusion partners are left off. A change or cut given only in a name is not applied to a line headed by its entry.
UniProt P46940: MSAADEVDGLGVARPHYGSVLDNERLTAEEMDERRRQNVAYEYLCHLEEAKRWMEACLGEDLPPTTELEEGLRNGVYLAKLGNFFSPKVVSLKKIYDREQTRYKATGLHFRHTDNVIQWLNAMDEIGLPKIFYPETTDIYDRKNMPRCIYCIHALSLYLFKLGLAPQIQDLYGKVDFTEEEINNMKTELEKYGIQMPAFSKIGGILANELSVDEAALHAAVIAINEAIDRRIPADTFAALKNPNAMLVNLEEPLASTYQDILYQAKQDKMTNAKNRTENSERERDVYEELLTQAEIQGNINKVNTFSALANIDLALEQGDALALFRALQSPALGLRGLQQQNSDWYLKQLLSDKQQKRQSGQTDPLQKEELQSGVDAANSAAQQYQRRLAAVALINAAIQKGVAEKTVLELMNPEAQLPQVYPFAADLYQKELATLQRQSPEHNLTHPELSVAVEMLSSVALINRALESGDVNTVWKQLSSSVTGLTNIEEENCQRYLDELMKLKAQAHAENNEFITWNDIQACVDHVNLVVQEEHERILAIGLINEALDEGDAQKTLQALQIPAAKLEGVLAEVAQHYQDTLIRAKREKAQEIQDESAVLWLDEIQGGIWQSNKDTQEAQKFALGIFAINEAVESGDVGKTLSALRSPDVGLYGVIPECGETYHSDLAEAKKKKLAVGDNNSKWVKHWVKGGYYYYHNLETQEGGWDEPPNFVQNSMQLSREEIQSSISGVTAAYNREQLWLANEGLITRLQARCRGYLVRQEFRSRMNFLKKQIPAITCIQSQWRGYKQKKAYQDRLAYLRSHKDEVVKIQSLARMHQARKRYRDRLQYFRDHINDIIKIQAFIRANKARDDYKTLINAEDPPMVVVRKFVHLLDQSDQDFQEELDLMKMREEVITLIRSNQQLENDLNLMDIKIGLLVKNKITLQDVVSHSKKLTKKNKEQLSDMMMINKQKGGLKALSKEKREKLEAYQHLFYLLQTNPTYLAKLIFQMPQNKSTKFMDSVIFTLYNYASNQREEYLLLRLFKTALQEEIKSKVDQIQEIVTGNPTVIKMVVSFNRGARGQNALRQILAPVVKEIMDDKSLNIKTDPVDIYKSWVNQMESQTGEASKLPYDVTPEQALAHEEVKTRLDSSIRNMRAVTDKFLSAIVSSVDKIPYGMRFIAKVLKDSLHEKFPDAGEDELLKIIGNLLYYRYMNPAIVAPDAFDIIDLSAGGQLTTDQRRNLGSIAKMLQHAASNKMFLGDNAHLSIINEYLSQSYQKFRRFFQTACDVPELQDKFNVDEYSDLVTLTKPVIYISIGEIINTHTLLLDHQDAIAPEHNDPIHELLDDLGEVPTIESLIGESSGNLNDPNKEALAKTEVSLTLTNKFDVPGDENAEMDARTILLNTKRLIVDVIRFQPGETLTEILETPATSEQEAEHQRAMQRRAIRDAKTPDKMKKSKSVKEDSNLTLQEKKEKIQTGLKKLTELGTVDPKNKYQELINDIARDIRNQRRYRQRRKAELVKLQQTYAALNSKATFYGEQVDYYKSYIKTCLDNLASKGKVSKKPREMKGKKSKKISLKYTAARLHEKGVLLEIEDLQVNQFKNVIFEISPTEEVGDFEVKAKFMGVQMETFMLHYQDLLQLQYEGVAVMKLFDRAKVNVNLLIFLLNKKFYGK
UniProt P27986: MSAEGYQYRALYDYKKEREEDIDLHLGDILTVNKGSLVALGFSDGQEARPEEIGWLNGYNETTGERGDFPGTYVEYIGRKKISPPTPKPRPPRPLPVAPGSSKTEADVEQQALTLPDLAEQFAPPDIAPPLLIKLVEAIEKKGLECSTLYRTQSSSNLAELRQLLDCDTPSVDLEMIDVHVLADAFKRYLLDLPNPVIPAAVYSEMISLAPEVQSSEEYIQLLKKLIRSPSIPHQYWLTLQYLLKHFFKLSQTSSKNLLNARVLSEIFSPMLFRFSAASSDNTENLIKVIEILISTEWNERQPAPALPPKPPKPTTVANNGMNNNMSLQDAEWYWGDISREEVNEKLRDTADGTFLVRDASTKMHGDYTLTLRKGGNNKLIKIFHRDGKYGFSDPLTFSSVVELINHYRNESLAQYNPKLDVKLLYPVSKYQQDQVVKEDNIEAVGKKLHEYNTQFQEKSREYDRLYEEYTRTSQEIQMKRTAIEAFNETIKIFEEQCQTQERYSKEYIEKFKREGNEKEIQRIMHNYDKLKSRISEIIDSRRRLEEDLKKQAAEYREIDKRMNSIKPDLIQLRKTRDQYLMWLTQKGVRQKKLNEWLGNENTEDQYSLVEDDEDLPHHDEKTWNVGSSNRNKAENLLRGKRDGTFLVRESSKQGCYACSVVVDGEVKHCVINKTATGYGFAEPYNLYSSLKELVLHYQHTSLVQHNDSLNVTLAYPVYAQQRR

Experiments:
[1] = biological target: Myc-tagged IQ3 (aa806-825)-deleted IQGAP1 (UniProt P46940); test: proximity ligation; UM-SCC47/HEK293FT cells transfected with Myc-tagged IQGAP1 WT or ΔIQ3, starved 24 h, with or without 10 ng/ml EGF 15 min, fixed in 4% PFA; Duolink in situ kit; Myc tag against the endogenous partner
[2] = biological target: Myc-tagged IQ3 (aa806-825)-deleted IQGAP1 (UniProt P46940); test: co-IP; Myc-tagged IQGAP1 WT or ΔIQ3 transfected in HEK293FT (Fig. 3a, Supplementary Fig. 6a) or UM-SCC47 (Fig. 4d) cells, starved 24 h, with or without 10 ng/ml EGF 15 min; lysis in 25 mM Tris-HCl pH 7.4, 150 mM NaCl, 1 mM EDTA, 1% NP-40, 5% glycerol; anti-c-Myc agarose 2 h at 4 °C; endogenous partners by blot

Substance: Epidermal growth factor receptor (EGFR) (from UniProt P00533 25-1210)
- binding [1]: binds
- binding [2]: binds

Substance: p85α regulatory subunit of PI3K (from UniProt P27986 1-724)
- binding [1]: binds
- binding [2]: binds
